Assay [1] deals with T1, FLAG-tagged human atlastin-1 (ATL1-FLAG) (human) (UniProt Q8WXF7).
T1 sequence: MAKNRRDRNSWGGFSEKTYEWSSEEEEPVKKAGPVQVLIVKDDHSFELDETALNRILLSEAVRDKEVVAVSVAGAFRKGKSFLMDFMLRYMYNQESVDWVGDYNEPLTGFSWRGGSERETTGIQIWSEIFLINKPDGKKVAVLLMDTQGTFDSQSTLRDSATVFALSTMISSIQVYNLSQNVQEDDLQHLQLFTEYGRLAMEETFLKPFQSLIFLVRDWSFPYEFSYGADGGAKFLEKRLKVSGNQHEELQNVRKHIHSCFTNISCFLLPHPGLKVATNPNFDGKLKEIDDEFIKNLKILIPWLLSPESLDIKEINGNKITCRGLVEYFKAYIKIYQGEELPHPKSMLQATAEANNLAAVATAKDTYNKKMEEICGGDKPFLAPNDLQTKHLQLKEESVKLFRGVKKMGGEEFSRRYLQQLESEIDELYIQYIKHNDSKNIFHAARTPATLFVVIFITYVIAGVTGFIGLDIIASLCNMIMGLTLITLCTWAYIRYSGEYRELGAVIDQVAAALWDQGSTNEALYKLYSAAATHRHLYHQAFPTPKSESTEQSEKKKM
Kind of assay: SEC. In general terms: Size exclusion chromatography separates by hydrodynamic size, large species first.

Assay [2] addresses T1, FLAG-tagged human atlastin-1 (ATL1-FLAG) (human). Kind of assay: co-IP.

These are yes or no findings as the source states them, for the method shown. For some assays here: Binding seen in cells or lysates may run through a third protein. Some results given as binding are weak or reduced against the parent protein; the word gives no strength. Sequences can lack the tags named with a protein.

Results on one molecule are retold here after article doi:10.1101/2023.12.19.572386.

B1: SBP-tagged REEP1 (REEP1-SBP) (protein, UniProt Q9H902 1-201)
chain: MVSWIISRLVVLIFGTLYPAYYSYKAVKSKDIKEYVKWMMYWIIFALFTTAETFTDIFLCWFPFYYELKIAFVAWLLSPYTKGSSLLYRKFVHPTLSSKEKEIDDCLVQAKDRSYDALVHFGKRGLNVAATAAVMAASKGQGALSERLRSFSMQDLTTIRGDGAPAPSGPPPPGSGRASGKHGQPKMSRSASESASSSGTA
Regarding B1, the binding entry in assay [1] and in assay [2] was “binds” each time.
